Data published in patent US7754689B2, “Finger-1 peptide analogs of the TGF-β superfamily” (Wyeth LLC, priority 2006, dated 2010).
Results are given in words; binding and its absence hold for the method and conditions named. Some binding calls cover weakened binding; strength is not graded here.

T1: BMP-3 (UniProt P12645)
T1 sequence (looked up): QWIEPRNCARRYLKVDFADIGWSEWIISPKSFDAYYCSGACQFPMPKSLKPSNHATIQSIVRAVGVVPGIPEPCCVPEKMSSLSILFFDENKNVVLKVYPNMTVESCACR

T2: BMP-12 (UniProt Q7Z4P5 322-450, limits assumed)
T2 construct: also called BMP12/GDF7
T2 sequence (looked up): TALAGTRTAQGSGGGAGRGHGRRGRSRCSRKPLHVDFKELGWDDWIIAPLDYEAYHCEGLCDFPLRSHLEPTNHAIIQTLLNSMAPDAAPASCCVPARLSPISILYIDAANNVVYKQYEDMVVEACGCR

T3: GDF-9 (UniProt O60383)
T3 sequence (looked up): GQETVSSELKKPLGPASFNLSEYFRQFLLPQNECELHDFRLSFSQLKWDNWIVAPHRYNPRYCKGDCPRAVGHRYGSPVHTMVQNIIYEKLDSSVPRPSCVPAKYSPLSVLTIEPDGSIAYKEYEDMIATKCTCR


Legend:
[1] = biological target: T1, BMP-3; experiment: affinity chromatography, immobilised peptide
[2] = biological target: T2, BMP-12; experiment: affinity chromatography, immobilised peptide
[3] = biological target: T2, BMP-12; experiment: peptide resin, filter plate
[4] = biological target: T3, GDF-9; experiment: affinity chromatography, immobilised peptide

Row | binding [1] | binding [2] | binding [3] | binding [4] | Binder
1 | binds | binds | – | – | KELGWDDWIIAPLDYEAYHCEGLC [wild-type BMP-12 finger 1 peptide (…)]
2 | – | – | binds | – | ELGWDDWIIAPLDYEAYHSEGLK (N-terminal acetyl (Ac-)) [BMP12 N-trun_1S peptide 749]
3 | – | – | binds | – | RDLGWQDWIIAPEGYAAFYSDGEK (N-terminal acetyl (Ac-)) [BMP5 peptide 748]
4 | – | – | binds | – | SDVGWNDWIVAPPGYHAFYSHGEK (N-terminal acetyl (Ac-)) [BMP2 N-trun 1S peptide 751]
5 | binds | binds | – | binds | SDVGWNDWIVAPPGYHAFYCHGEK (linked to sepharose beads via a C-terminal lysine) [mutant of the BMP-2 finger 1 peptide (…)]
6 | – | – | binds | – | LYVDFSDVGWNDWIVAPPGYHAFYSHGEK (N-terminal acetyl (Ac-)) [BMP2 Full peptide 747]
7 | – | – | binds | – | SDVGWNDWIVAPPGYHAFYCHGEK (N-terminal acetyl (Ac-)) [BMP2 N-trun peptide 750]
